This experiment has as its target MBP-hMUC1-C protein (human) (UniProt P15941). Nature of the experiment: competitive ELISA on coated MBP-hMUC1-C, competitor biotin-labelled G3 at 50 nM. A general note: An ELISA detects its analyte on a solid surface through an enzyme-linked reagent.

The chains behind the UniProt entries cited, without tags or fusion partners. Where a name states a change or a piece, a line headed by the entry shows the natural chain unless it says otherwise.
UniProt P15941: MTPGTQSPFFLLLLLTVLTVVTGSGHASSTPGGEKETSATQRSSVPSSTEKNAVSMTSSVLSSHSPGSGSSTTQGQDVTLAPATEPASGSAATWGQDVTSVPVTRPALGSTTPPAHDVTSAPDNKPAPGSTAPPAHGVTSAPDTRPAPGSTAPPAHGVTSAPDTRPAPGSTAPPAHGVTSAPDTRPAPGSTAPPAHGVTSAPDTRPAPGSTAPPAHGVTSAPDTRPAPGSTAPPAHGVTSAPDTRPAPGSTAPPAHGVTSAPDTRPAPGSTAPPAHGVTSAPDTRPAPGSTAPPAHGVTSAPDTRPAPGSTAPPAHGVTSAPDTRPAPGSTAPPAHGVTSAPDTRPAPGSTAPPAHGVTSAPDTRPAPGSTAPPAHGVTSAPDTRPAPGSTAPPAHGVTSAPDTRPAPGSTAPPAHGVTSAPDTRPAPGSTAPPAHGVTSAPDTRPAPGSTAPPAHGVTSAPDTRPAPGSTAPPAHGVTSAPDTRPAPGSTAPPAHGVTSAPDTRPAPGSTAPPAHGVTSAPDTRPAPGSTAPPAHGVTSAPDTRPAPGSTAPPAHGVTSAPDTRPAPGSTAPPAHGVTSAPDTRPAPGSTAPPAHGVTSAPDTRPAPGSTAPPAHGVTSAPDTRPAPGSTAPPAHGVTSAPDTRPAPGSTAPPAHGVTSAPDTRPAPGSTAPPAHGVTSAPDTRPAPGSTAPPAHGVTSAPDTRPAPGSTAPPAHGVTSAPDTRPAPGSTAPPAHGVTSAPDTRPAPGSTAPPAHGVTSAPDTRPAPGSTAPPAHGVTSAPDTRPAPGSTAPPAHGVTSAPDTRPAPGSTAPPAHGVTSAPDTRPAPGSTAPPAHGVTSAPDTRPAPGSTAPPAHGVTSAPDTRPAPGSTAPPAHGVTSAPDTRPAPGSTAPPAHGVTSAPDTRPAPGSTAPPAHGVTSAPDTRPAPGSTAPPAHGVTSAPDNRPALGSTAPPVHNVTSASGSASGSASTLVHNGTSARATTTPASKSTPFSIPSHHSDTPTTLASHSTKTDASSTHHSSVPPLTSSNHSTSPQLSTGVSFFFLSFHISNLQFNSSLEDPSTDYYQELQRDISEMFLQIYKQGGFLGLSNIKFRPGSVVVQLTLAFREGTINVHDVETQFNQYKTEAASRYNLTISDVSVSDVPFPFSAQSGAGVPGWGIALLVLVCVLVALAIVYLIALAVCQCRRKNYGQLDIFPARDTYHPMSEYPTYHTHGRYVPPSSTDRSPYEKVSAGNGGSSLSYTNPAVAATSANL

Results are given in words; binding and its absence hold for the method and conditions named. Some results given as binding are weak or reduced against the parent protein; the word gives no strength.

B1: anti-hMUC1 monoclonal antibody purified from hybridoma hMUC1-1H7 (KCLRF-BP-00395) (antibody, V domains shown)
VH: EVQLQQSGAELAKPGASVKMSCKVSGYTFTSYWMHWVKQRPGQGLEWIGYINPGTGYIEYNQKFKDKATLTADKSSSTAYMQLSSLTSEDSAVYYCASSTAPFDYWGQGTTLTVSS
VL: DIVITQSPSSMYASLGERVTITCKASQDIKSYLSWYQQKPWKSPKTLIYYATRLADGVPSRFSGSGSGQDYSLTISSLESDDTATYYCLQYDESPYTFGGGTKLEIKR
notes: also called anti-hMUC1 antibody; anti-hMUC1-C mouse antibody (1H7)
B1: the binding result was “binds”.

The values are drawn from patent US20210115153A1 (PEPTRON, published 2021).
